These are yes or no findings as the source states them, for the method shown. Some binding calls cover weakened binding; strength is not graded here.
Key:
[1] = molecular target: mutant (γ^S3C) α3β3γ complex of BF1 (Bacillus subtilis) (UniProt P37808+P37809+P37810); assay: cross-linking; disulfide cross-linking without ATP: α3β3γ^S3C and ε^133C mixed 1:10, excess ε removed by ultrafiltration (100-kDa cutoff), 50 µM CuCl2, 1 h, 25 °C, 50 mM Tris-H2SO4 pH 7.5, 50 mM K2SO4; non-reducing SDS-PAGE; both purified
[2] = molecular target: β subunit of BF1 with His6-tag at the N-terminus (Bacillus subtilis) (UniProt P37809); assay: co-purification (HisTrap by His6-β, then Superdex 200 gel filtration); subunits co-expressed in E. coli; buffer A 20 mM Tris-H2SO4 pH 7.5, 300 mM K2SO4, 30 mM imidazole; 25 °C
[3] = molecular target: α3β3γ complex of F1-ATPase from Bacillus subtilis (BF1), WT (Bacillus subtilis) (UniProt P37808+P37809+P37810); assay: SEC; gel-filtration HPLC (Superdex 200 10/300GL), also in the presence of ATP and/or LDAO; data not shown; both purified

In the case of “mutant BF1 ε subunit (133C, a Cys introduced at the C-terminus) (from UniProt P37812 1-132)”, the binding [1] was “binds”.

In the case of “γ^S3C subunit of BF1 (from UniProt P37810 1-287)”, the binding [2] was “binds”.

With “α subunit of BF1 (from UniProt P37808 1-502)” the binding [2] was “binds”.

With “ε subunit of BF1 (Bacillus subtilis F1-ATPase), WT (from UniProt P37812 1-132)” the binding [3] was “binds”.

With “γ subunit of BF1, WT (from UniProt P37810 1-287)” the binding [2] was “binds”.

Source: paper PMC3742539, “ε Subunit of Bacillus subtilis F1-ATPase Relieves MgADP Inhibition” (PLoS ONE, 2013)
